From article PMC4974783

Protein sequences, listed by entry. Tags and fused reporters are not part of them. Residues count along the entry.
UniProt Q9H5V8, residues 30-836: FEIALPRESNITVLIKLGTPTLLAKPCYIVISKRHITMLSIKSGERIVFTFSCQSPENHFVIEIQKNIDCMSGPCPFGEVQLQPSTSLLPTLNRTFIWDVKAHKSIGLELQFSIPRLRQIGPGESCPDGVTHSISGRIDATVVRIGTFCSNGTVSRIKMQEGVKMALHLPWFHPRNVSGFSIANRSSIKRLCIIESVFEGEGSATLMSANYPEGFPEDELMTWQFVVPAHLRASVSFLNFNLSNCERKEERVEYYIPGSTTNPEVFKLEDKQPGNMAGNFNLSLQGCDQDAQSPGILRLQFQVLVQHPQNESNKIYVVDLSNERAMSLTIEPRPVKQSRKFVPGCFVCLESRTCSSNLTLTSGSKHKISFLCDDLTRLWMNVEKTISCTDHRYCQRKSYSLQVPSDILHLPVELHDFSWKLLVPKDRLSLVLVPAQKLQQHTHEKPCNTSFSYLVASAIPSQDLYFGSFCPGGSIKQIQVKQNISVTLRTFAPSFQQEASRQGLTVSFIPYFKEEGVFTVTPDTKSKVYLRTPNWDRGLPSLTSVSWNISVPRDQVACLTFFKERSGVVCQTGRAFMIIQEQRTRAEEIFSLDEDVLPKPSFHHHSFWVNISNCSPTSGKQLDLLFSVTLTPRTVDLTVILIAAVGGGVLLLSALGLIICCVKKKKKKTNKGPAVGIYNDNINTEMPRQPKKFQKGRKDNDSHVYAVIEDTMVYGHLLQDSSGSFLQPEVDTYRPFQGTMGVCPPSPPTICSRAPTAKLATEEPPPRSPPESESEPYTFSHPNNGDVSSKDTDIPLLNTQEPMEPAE
UniProt P08670: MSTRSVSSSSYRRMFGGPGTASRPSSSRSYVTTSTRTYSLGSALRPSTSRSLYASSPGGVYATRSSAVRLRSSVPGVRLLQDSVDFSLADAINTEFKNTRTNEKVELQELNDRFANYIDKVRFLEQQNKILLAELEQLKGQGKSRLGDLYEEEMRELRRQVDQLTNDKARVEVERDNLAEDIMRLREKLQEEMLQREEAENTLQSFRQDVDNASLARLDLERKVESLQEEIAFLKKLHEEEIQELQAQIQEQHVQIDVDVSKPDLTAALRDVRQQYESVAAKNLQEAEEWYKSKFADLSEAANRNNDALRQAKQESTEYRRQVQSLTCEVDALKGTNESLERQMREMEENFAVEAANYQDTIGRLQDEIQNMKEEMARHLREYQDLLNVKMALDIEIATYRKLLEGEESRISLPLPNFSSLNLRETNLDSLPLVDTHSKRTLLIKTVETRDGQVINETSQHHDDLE
UniProt Q9NR12: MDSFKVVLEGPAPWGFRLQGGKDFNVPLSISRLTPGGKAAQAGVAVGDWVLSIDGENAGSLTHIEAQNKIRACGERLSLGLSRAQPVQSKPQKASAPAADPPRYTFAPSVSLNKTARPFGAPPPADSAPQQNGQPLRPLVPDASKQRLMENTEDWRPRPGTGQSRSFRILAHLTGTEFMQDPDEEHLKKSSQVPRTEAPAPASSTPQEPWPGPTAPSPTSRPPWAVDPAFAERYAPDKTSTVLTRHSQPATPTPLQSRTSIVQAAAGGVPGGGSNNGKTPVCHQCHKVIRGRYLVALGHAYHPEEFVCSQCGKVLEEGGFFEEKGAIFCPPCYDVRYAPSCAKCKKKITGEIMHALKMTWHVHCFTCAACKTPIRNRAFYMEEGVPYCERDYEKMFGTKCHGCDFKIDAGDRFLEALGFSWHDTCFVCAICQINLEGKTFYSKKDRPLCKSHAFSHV

Molecular target: FLAG-epitope-tagged full-length CUB domain-containing protein 1 (CDCP1) (UniProt Q9H5V8)
Assay: affinity purification with mass spectrometry; anti-FLAG affinity purification from MDA-MB-231 cells transduced with FLAG-tagged ΔCDCP1 or CDCP1, with or without 100 μM sodium pervanadate for 15 minutes; stained SDS-PAGE bands excised and identified by LC-MS/MS

| binding | Substance |
| --- | --- |
| binds | vimentin (from UniProt P08670 1-466) |
| binds | Enigma/PDLIM7 in MDA-MB-231 cells (from UniProt Q9NR12 1-457) |

These are yes or no findings as the source states them, for the method shown. In cells and extracts the contact can be indirect. A yes stands for co-enrichment or nearness to the bait. Other partners may have been found.
